± gives the standard deviation. The entries are a selection whose mix differs from that of the whole data set. Many of these values have a large error.
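Also: 1 nM active piRISC with 0.1 nM target library at 33 °C single turnover.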

For the first test, the system named is MILI (PIWIL2) piRISC loaded with piRNA #1 (26 nt). The experiment in a line: pre-steady-state target cleavage rate (min^-1); MIWI and MILI are mouse PIWI proteins and EfPiwi is from a freshwater sponge; tags in brackets are library labels; higher = faster piRNA-guided slicing of the target. Particulars: guide: piRNA #1 5'p-UGAGGUAGUAGGUUGUAUAGUAUCCA; auxiliary factor: 500 nM mouse GTSF1. In a few lines:
(§1)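 The pre-steady-state cleavage rate was derived from a burst-and-steady-state fit of Cleave-'n-Seq data. For these assays, 1 nM active affinity-purified piRISC loaded with a single synthetic guide was mixed with […] a transcribed, DNA-blocked target RNA library in HEPES–potassium acetate buffer at 33 °C, with or without 500 nM GTSF1 partner protein, for 0–8 or 0–960 min. Sequencing counts of uncleaved targets were normalised to depth and to weakly complementary targets, and k3 was capped at 0.0001 min^-1 after three trials were pooled.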
GGAGACCUAUGAUAUGUUCUUACUACCUCA: the “pre-steady-state target cleavage rate” value is 0.000292 ± 0.0094.

Turning to “GGAGUGGAUACUAUACAACCUACAUGGAGA [g8:g26:cont:t1A]”, the “pre-steady-state target cleavage rate” value worked out at 0.000518 ± 0.0078.

Take GGAGACCUAUGAUUACAACCUUGUACCUCA: the “pre-steady-state target cleavage rate” value stood at 0.00139 ± 0.007.

As for GGAGACCUAUGAUAUGUUGCUACUACACUCA, the “pre-steady-state target cleavage rate” value was 0.000721 ± 0.012.

Turning to GGAGACCUAUGAUAUCAGCCUACUACCUCA, the “pre-steady-state target cleavage rate” value was 0.000194 ± 0.012.

On to GGAGACCUAUGAUUACAACCUACUUCCUGA, for which the “pre-steady-state target cleavage rate” value was 0.00134 ± 0.0048.

Consider GGAGACCUAUGAUAACAACCACUACCUCA, for which the “pre-steady-state target cleavage rate” value was 0.000382 ± 0.013.

With GGAGACGAUACUAUACAACCUACACCUCA, the “pre-steady-state target cleavage rate” value is 0.00588 ± 0.0025.

Take GGAGUGGAUACUAUACAACCUACUCCUCA: the “pre-steady-state target cleavage rate” value came out at 0.00253 ± 0.0026.

With GGAGACCUAUGAUUACAACCUUCUAGCUCA, the “pre-steady-state target cleavage rate” value was 0.00137 ± 0.0045.

As to GGAGACCUAUGAUAUGUUGCUACUACCACA, the “pre-steady-state target cleavage rate” value was found to be 0.000405 ± 0.01.

In the case of GGAGACCUAUGAUAUCACACCUACUACCUCA, the “pre-steady-state target cleavage rate” value is 0.000837 ± 0.0049.

Turning to GGAGACCUAUGAUAAGAACCAACUACCUCA, the “pre-steady-state target cleavage rate” value turned out to be 0.000257 ± 0.011.

In the case of GGAGACCUAUGAUAUCAACCAACUACCUCA, the “pre-steady-state target cleavage rate” value was 0.00104 ± 0.0048.

Turning to GGAGACCUAUGAUUACAACCAACUACCUCA, the “pre-steady-state target cleavage rate” value was found to be 0.00212 ± 0.0031.

For GGAGACCUAUGAAUACAUCGUACUACCUCA, the “pre-steady-state target cleavage rate” value is 0.00148 ± 0.0036.

For the sequence GGAGACCUAUGAUAACAACGUACUACGUCA, the “pre-steady-state target cleavage rate” value turned out to be 0.000669 ± 0.0075.

For GGAGACCUAAGUAUACUACCUACUACCUCA, the “pre-steady-state target cleavage rate” value was determined as 0.0377 ± 0.0069.

On to GGAGACCUAUGUAUACAGACCUACUACCUCA, for which the “pre-steady-state target cleavage rate” value worked out at 0.00056 ± 0.013.

GGAGACCUAUGAUAUGUUCCUACUACGUCA: the “pre-steady-state target cleavage rate” value came to 0.000235 ± 0.0088.

Regarding GGAGACCUAUGAUAUGUUGCUACUACCCCA, the “pre-steady-state target cleavage rate” value was found to be 0.000431 ± 0.017.

For the sequence GGAGACCUAUGAUAACAACCGACUACCUCA, the “pre-steady-state target cleavage rate” value is 0.00255 ± 0.0029.

Consider GGAGACCUAUGAUAUCAAUCUACUACCUCA, for which the “pre-steady-state target cleavage rate” value is 0.000798 ± 0.0075.

As to GGAGACCUAUGAUUACAUGGUACUACCUCA, the “pre-steady-state target cleavage rate” value was determined as 0.000935 ± 0.0083.

For GGAGACCUAUCUAUACAACCUACAUGCUCA, the “pre-steady-state target cleavage rate” value was determined as 0.068 ± 0.021.

As for GGAGACCUAUGAUAUGUUGCUACUUCGUCA, the “pre-steady-state target cleavage rate” value was found to be 0.000273 ± 0.011.

As to GGAGACCUAUGAUUACAACCUACAACCACA, the “pre-steady-state target cleavage rate” value was 0.00296 ± 0.0038.

For GGAGACCUAUGAUAACAUCCUACUACGUCA, the “pre-steady-state target cleavage rate” value worked out at 0.00102 ± 0.0067.

For GGAGACCUAUGAUAUGUUGGUACCUACCUCA, the “pre-steady-state target cleavage rate” value was determined as 0.000335 ± 0.016.

Take GGAGACCUAUGAAUACAACCCUACUACCUCA: the “pre-steady-state target cleavage rate” value worked out at 0.0013 ± 0.0049.

GGAGACCUAUGAUAACAACCUACUUCGUCA: the “pre-steady-state target cleavage rate” value was 0.001 ± 0.0089.

Consider GGAGACCAUACUAUACAAGCCUACUACCUCA, for which the “pre-steady-state target cleavage rate” value came to 0.00281 ± 0.0049.

For the sequence GGAGACCUAACUAUACACCUACUACCUCA, the “pre-steady-state target cleavage rate” value is 0.00421 ± 0.0053.

Turning to GGAGACCUAUGAUAUGUUGGUACUACAUCA, the “pre-steady-state target cleavage rate” value came to 0.000384 ± 0.0098.

With GGAGACCUAUGAUUACAAUCUACUACCUCA, the “pre-steady-state target cleavage rate” value came to 0.00319 ± 0.0026.

GGAGACCUAUGAUAUCAACCUAGCUACCUCA: the “pre-steady-state target cleavage rate” value was 0.00339 ± 0.0024.

Turning to GGAGACCUAACUAUACAACCAACAACCUCA, the “pre-steady-state target cleavage rate” value worked out at 0.00126 ± 0.011.

For the sequence GGAGACCUAUGAUAUCAACGUACUUCCUCA, the “pre-steady-state target cleavage rate” value is 0.000205 ± 0.015.

For the sequence GGAGACCUAUGAUUUCAAGCUACUACCUCA, the “pre-steady-state target cleavage rate” value was found to be 0.00713 ± 0.0026.

Take GGAGACCUAUGAUAACAACCUACUUCCACA: the “pre-steady-state target cleavage rate” value turned out to be 0.00111 ± 0.0057.

In the next test the test system is MIWI (PIWIL1) piRISC loaded with piRNA #1 (30 nt). The description is as above. Particulars: guide: piRNA #1 5'p-UGAGGUAGUAGGUUGUAUAGUAUCCAGAGG; auxiliary factor: 500 nM mouse GTSF1. In a few lines: as §1
As for GGAGACCUAUGAUAUGUUCUUACUACCUCA, the “pre-steady-state target cleavage rate” value came out at 0.000628 ± 0.0054.

As for “GGAGUGGAUACUAUACAACCUACAUGGAGA [g8:g26:cont:t1A]”, the “pre-steady-state target cleavage rate” value amounted to 0.000128 ± 0.019.

On to GGAGACCUAUGAUUACAACCUUGUACCUCA, for which the “pre-steady-state target cleavage rate” value was 0.000336 ± 0.011.

GGAGACCUAUGAUAUGUUGCUACUACACUCA: the “pre-steady-state target cleavage rate” value is 0.000801 ± 0.011.

As to GGAGACCUAUGAUAUCAGCCUACUACCUCA, the “pre-steady-state target cleavage rate” value stood at 0.000216 ± 0.0091.

Consider GGAGACCUAUGAUUACAACCUACUUCCUGA, for which the “pre-steady-state target cleavage rate” value was 0.000238 ± 0.0077.

GGAGACCUAUGAUAACAACCACUACCUCA: the “pre-steady-state target cleavage rate” value was determined as 0.000219 ± 0.0074.

As for GGAGACGAUACUAUACAACCUACACCUCA, the “pre-steady-state target cleavage rate” value came out at 0.000815 ± 0.0064.

Turning to GGAGUGGAUACUAUACAACCUACUCCUCA, the “pre-steady-state target cleavage rate” value came to 0.00158 ± 0.0045.

As for GGAGACCUAUGAUUACAACCUUCUAGCUCA, the “pre-steady-state target cleavage rate” value is 0.000208 ± 0.0093.

Consider GGAGACCUAUGAUAUGUUGCUACUACCACA, for which the “pre-steady-state target cleavage rate” value is 0.000902 ± 0.0041.

As to GGAGACCUAUGAUAUCACACCUACUACCUCA, the “pre-steady-state target cleavage rate” value worked out at 0.000178 ± 0.011.

In the case of GGAGACCUAUGAUAAGAACCAACUACCUCA, the “pre-steady-state target cleavage rate” value came out at 0.000102 ± 0.025.

Take GGAGACCUAUGAUAUCAACCAACUACCUCA: the “pre-steady-state target cleavage rate” value worked out at 0.000134 ± 0.019.

Consider GGAGACCUAUGAUUACAACCAACUACCUCA, for which the “pre-steady-state target cleavage rate” value was 0.000174 ± 0.013.

For the sequence GGAGACCUAUGAAUACAUCGUACUACCUCA, the “pre-steady-state target cleavage rate” value is 0.000269 ± 0.012.

In the case of GGAGACCUAUGAUAACAACGUACUACGUCA, the “pre-steady-state target cleavage rate” value is 0.000631 ± 0.0075.

On to GGAGACCUAAGUAUACUACCUACUACCUCA, for which the “pre-steady-state target cleavage rate” value worked out at 0.00246 ± 0.0029.

As for GGAGACCUAUGUAUACAGACCUACUACCUCA, the “pre-steady-state target cleavage rate” value worked out at 0.000861 ± 0.0066.

On to GGAGACCUAUGAUAUGUUCCUACUACGUCA, for which the “pre-steady-state target cleavage rate” value came to 0.000297 ± 0.009.

In the case of GGAGACCUAUGAUAUGUUGCUACUACCCCA, the “pre-steady-state target cleavage rate” value worked out at 0.000287 ± 0.0098.

Turning to GGAGACCUAUGAUAACAACCGACUACCUCA, the “pre-steady-state target cleavage rate” value was 0.000183 ± 0.0099.

As to GGAGACCUAUGAUAUCAAUCUACUACCUCA, the “pre-steady-state target cleavage rate” value was 0.000138 ± 0.016.

In the case of GGAGACCUAUGAUUACAUGGUACUACCUCA, the “pre-steady-state target cleavage rate” value was 0.00159 ± 0.0048.

Regarding GGAGACCUAUCUAUACAACCUACAUGCUCA, the “pre-steady-state target cleavage rate” value came out at 0.00132 ± 0.006.

For the sequence GGAGACCUAUGAUAUGUUGCUACUUCGUCA, the “pre-steady-state target cleavage rate” value is 0.000883 ± 0.0066.

Take GGAGACCUAUGAUUACAACCUACAACCACA: the “pre-steady-state target cleavage rate” value turned out to be 0.000241 ± 0.0091.

In the case of GGAGACCUAUGAUAACAUCCUACUACGUCA, the “pre-steady-state target cleavage rate” value amounted to 0.00145 ± 0.0042.

Take GGAGACCUAUGAUAUGUUGGUACCUACCUCA: the “pre-steady-state target cleavage rate” value came out at 0.000239 ± 0.016.

On to GGAGACCUAUGAAUACAACCCUACUACCUCA, for which the “pre-steady-state target cleavage rate” value came to 0.000271 ± 0.011.

As to GGAGACCUAUGAUAACAACCUACUUCGUCA, the “pre-steady-state target cleavage rate” value stood at 0.000229 ± 0.017.

Regarding GGAGACCAUACUAUACAAGCCUACUACCUCA, the “pre-steady-state target cleavage rate” value was 0.00117 ± 0.0082.

As for GGAGACCUAACUAUACACCUACUACCUCA, the “pre-steady-state target cleavage rate” value amounted to 0.000811 ± 0.013.

GGAGACCUAUGAUAUGUUGGUACUACAUCA: the “pre-steady-state target cleavage rate” value came out at 0.000383 ± 0.0095.

On to GGAGACCUAUGAUUACAAUCUACUACCUCA, for which the “pre-steady-state target cleavage rate” value is 0.00077 ± 0.0059.

Consider GGAGACCUAUGAUAUCAACCUAGCUACCUCA, for which the “pre-steady-state target cleavage rate” value was 0.00046 ± 0.006.

Regarding GGAGACCUAACUAUACAACCAACAACCUCA, the “pre-steady-state target cleavage rate” value came to 0.000233 ± 0.028.

Take GGAGACCUAUGAUAUCAACGUACUUCCUCA: the “pre-steady-state target cleavage rate” value came out at 0.000354 ± 0.0093.

Take GGAGACCUAUGAUUUCAAGCUACUACCUCA: the “pre-steady-state target cleavage rate” value turned out to be 0.000918 ± 0.0052.

As for GGAGACCUAUGAUAACAACCUACUUCCACA, the “pre-steady-state target cleavage rate” value worked out at 0.000174 ± 0.01.

The values above are taken from the supplement of paper PMC10338343.
